From patent US10758541B2, “Formulations of milciclib and therapeutic combinations of the same for use in the treatment of cancer” (Tiziana Life Sciences PLC, priority 2017, dated 2020)
At least one compound was matched to its structure with a doubt left.

Key:
[1] = system: MHCC97H cells; test: EMT transwell invasion assay; format: cell-based, human; conditions: in combination with milciclib, vs individual treatment, P<0.005
Experimental: (§1) EMT (Epithelial to Mesenchymal Transition) induction employing kit from R&D systems (Cat # CCM017)
(§2) For transwell invasion assay HCC cells were seeded in the top chamber in 6 well transwell plates (Sigma-Aldrich, St. Louis, Mo.) at a density of 100,000 cells/500 μL/well in standard culture media containing 100× StemXVivo® EMT Inducing Media Supplement (R&D systems, Minneapolis, Minn.) and was incubated overnight at 37° C. in humidified CO2 incubator. Next day, EMT inducing media with or without the test articles was added and incubation was continued for 10 days with media changes every 3 days. On the 10th day, the number of cells migrated to the lower chamber was determined using Bio-Rad (Hercules, Calif.) automatic cell counter. Values obtained were expressed as a percentage of invasion and the cell counts of control cells were considered 100%.
(§3) The invasive potential of cancer cells is dependent on losing epithelial characteristics and acquiring a migratory mesenchymal property referred to as Epithelial to Mesenchymal Transition (EMT).

[2] = system: MHCC97L cells; test: EMT transwell invasion assay; format: cell-based, human; conditions: in combination with milciclib, vs individual treatment, P<0.005
Experimental: as §1, §2, §3

CCN(CC)CCNC(=O)c1c(C)[nH]c(/C=C2\C(=O)Nc3ccc(F)cc32)c1C [SUNITINIB, sunitinib]
invasion potential [1]: reduced the invasion potential to a greater extent
invasion potential [2]: reduced the invasion potential to a greater extent
